# Results reported in PubChem BioAssay AID2685 (National Center for Advancing Translational Sciences (NCATS), 2010).
# Some of the results follow. Shown are side measurements of this screen, not its main read-out; they come without a call. Most of these compounds were active or inconclusive in the main read-out, so they are no random draw. Potencies come from curve fits of mixed quality, noted in brackets.
# Test: qHTS Assay for Lipid Storage Modulators in Drosophila S3 Cells;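 for cell number change: cells counted by Cell Tracker Red CMTPX staining in the red channel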
# Conditions: BODIPY lipid droplet fluorescence, 18-24 h; for cell number change: measured here: cell count max response, cells fed with added oleic acid
# In short: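 Drosophila S3 cells loaded with oleic acid (400 uM, as added) and compounds at several concentrations; lipid droplets imaged by 488-nm laser-scanning cytometry, 500–530 nm intensity and object ratio to cell channel. Percent activity normalized to 20 uM Triacsin C.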
# [1] = measured here: cell number channel AC50, cells fed with added oleic acid
# [2] = measured here: lipid fluorescence (Fed channel) AC50, cells fed with added oleic acid
SMILES,cell number change [%],AC50 [1],AC50 [2]
CCc1ccc([C@@H]2CC=C(C(=O)O)[C@H](c3cccc(Cl)c3)N2S(=O)(=O)c2ccc(C)cc2)cc1,7.92,"0.731 µM [falling, single point]","25.9 µM [falling, single point]"
CCC(=O)c1ccc(OCC(=O)Nc2cccc(S(=O)(=O)N(C)c3ccccc3)c2)cc1,12.5,–,–
O=C(COc1ccc([N+](=O)[O-])cc1)Nc1ccc(N2CCCC2)cc1,-9.33,–,"14.6 µM [rising, single point]"
COc1ccccc1C(=O)O[C@H]1[C@H](Cc2ccccc2)NS(=O)(=O)[C@H]2C[C@@H]3C=C[C@]12O3,4.4,–,"1.16 µM [rising, single point]"
CSc1ncccc1C(=O)OCC(=O)Nc1ccc2c(c1)CCC2,13.7,–,"16.4 µM [falling, single point]"
CCC(C)(C)NC(=O)COc1ccc(C(=O)c2ccccc2)cc1,0.947,–,"0.326 µM [rising, full curve, poor fit]"
CS(=O)(=O)Cc1ccc(C(=O)NC2CCN(Cc3ccccc3)C2)cc1 (configuration not stated),7.14,–,"29.1 µM [rising, single point]"
O=C(O)CCCN1C(=O)NC2NC(=O)NC21 (configuration not stated),4.11,–,"0.82 µM [falling, full curve]"
CCC(=O)NNC(=S)NC(=O)c1ccc(C)cc1,-2.63,–,"1.03 µM [falling, partial curve]"
CN1CCN(Cc2nc3ccccc3c(=O)n2CC#N)CC1,19.7,–,"0.651 µM [falling, partial curve, poor fit]"
NC(=O)CSc1nnc(NC(=O)c2ccc(S(=O)(=O)N3CCCCC3)cc2)s1,-9.5,–,–
CC(=O)c1sc(NCc2ccc(C)cc2)nc1C,-16.2,–,"6.51 µM [falling, single point]"
O=C(CSc1nc2ccccc2n1CC(=O)N1CCCC1)Nc1ccc2c(c1)OCO2,18.4,–,"0.184 µM [rising, full curve]"
CC(C)CCNC(=O)C(c1ccco1)N(Cc1cccs1)C(=O)Cn1nnc2ccccc21 (configuration not stated),1.75,–,"14.6 µM [rising, partial curve]"
Nn1c(Cc2cccc3ccccc23)nnc1SCCOc1ccc(Br)cc1,-33.3,"5.8 µM [rising, partial curve]",–
Cc1nc2cc(F)ccc2n1C1CCN(C(=O)c2c(F)cccc2F)CC1,–,–,"29.1 µM [falling, single point]"
COc1ccc(CN2CC(=O)N(c3cc(Cl)ccc3OC)C2=S)cc1OC,-27.3,–,–
COc1cc(OC)c(OC)cc1C#N,3.08,"0.00461 µM [falling, full curve, poor fit]",–
Cc1cc(S(=O)(=O)N2CCC(N3CCCCC3)CC2)ccc1-n1cnnn1,22,–,–
Cc1cc(C)n2nc(N)c(N=Nc3cccc(Cl)c3)c2n1,-0.729,"0.731 µM [rising, full curve, poor fit]",–

SMILES,cell number change [%],AC50 [1],AC50 [2]
O=C(c1cc(S(=O)(=O)N2CCN(c3ccccc3)CC2)ccc1Cl)N1CCCC(C(F)(F)F)C1 (configuration not stated),3.59,–,"29.1 µM [falling, single point]"
Cc1ccc(NC(=O)c2cc3ccccc3cc2O)cc1,-27,–,"29.1 µM [falling, single point]"
CC12COC3(C(=O)Nc4ccc(Cl)cn4)CC1CCC32C (configuration not stated),73.2,"16.4 µM [rising, partial curve]","6.51 µM [rising, single point]"
Cc1ccccc1OCCC(=O)OCC(=O)Nc1cc(S(=O)(=O)N2CCOCC2)ccc1Cl,-4.33,–,–
O=C(OCc1nc2ccccc2[nH]1)C1CCCCC1,–,–,"18.4 µM [rising, single point]"
Oc1c(CNc2ccccc2)cc(COCc2ccccc2)c2cccnc12,-14.2,–,"9.2 µM [falling, partial curve]"
CCOC(=O)N1CCN(C(=O)CSc2nnc(-c3cccs3)o2)CC1,-12.3,–,"0.00461 µM [rising, full curve, poor fit]"
CC(=O)Nc1ccc(OCc2ccc(S(=O)(=O)Cc3ccccc3)cc2)cc1,-2.23,–,"0.00517 µM [falling, full curve, poor fit]"
COc1ccc(NC(=O)c2cccnc2Sc2ccccc2)c(OC)c1,-7.09,–,"13 µM [rising, partial curve]"
CCCCCc1nc(N)c(C#N)c(-c2ccco2)c1CCCC,12.2,–,"11.6 µM [rising, partial curve]"
c1ccc(OCCCCN2CCCCC2)cc1,31.6,–,"20.6 µM [rising, single point]"
CCSc1nnc(-c2sc3nnc(-c4ccccc4)c(-c4ccccc4)c3c2N)o1,-13.4,–,"4.11 µM [falling, partial curve]"
COc1ccc(-c2cc3ccccc3cn2)cc1,-22.9,–,"1.16 µM [rising, partial curve]"
O=C(O)c1ccccc1C(=O)N(Cc1ccccc1)Cc1ccccc1,-56.7,"7.31 µM [falling, partial curve]","5.8 µM [falling, full curve]"
Cc1ccc(C(=O)NN2C(=O)/C(=C/c3cn(C)c4ccccc34)SC2=S)cc1,95.4,"20.6 µM [rising, partial curve]","25.9 µM [rising, single point]"
CCN(Cc1ccccc1)S(=O)(=O)c1ccc(C(=O)N(CCCN(C)C)c2nc3cc(C)cc(C)c3s2)cc1,-80.3,"18.4 µM [falling, single point]",–
O=[N+]([O-])c1ccc(-c2csc3[n+]2CCS3)cc1,-24,"1.03 µM [falling, full curve, poor fit]","0.92 µM [falling, full curve]"
Oc1cc(Nc2ccc(N3CCCCC3)cc2)cc2cccnc12,-35.3,"0.00461 µM [falling, full curve, poor fit]","0.651 µM [falling, full curve, poor fit]"
FC(F)(F)c1cc(-c2ccccc2)nc(NC2CCCC2)n1,-35.7,"29.1 µM [falling, single point]","16.4 µM [falling, partial curve, poor fit]"
COc1ccc(C2=NOC(Cn3nc(C(=O)NCc4cccc(C(F)(F)F)c4)cc3-c3ccccc3)C2)cc1 (configuration not stated),15,–,"3.26 µM [rising, single point]"

# Whole records, looked up by structure. Values in the order: cell number change [%]	AC50 [1]	AC50 [2]
# `CN1CCN(Cc2nc3ccccc3c(=O)n2CC#N)CC1` reads 19.7	–	0.651 µM [falling, partial curve, poor fit]
# `CC(=O)Nc1ccc(OCc2ccc(S(=O)(=O)Cc3ccccc3)cc2)cc1` reads -2.23	–	0.00517 µM [falling, full curve, poor fit]
# `O=C(O)c1ccccc1C(=O)N(Cc1ccccc1)Cc1ccccc1` reads -56.7	7.31 µM [falling, partial curve]	5.8 µM [falling, full curve]

# (cont.)

SMILES,cell number change [%],AC50 [1],AC50 [2]
CN(C(=O)COC(=O)c1cccnc1Nc1ccccc1F)C1CCS(=O)(=O)C1 (configuration not stated),-14.2,–,"29.1 µM [falling, single point]"
CCOC(=O)C(C)Sc1nnc(-c2ccccc2O)n1-c1ccc(C)cc1 (configuration not stated),-16.3,–,"2.59 µM [rising, single point]"
c1ccc(CN2CCN(C3=Nc4cccc5cccc3c45)CC2)cc1,42.1,"29.1 µM [rising, single point]","4.61 µM [rising, full curve]"
CCC(OC(=O)c1nsc(Cl)c1Cl)C(=O)NCCc1ccccc1 (configuration not stated),-13.5,–,"0.184 µM [rising, full curve, poor fit]"
COCCNC(=O)COc1ccc(N(C)S(=O)(=O)c2ccc3ccccc3c2)cc1,14.1,–,"2.31 µM [rising, partial curve]"
CCC(CC)NC(=O)COC(=O)CCC(=O)c1ccc(Cl)cc1,-33.8,–,–
Cc1ccc(SCC(=O)Nc2nnc(C(C)(C)C)s2)cc1,15.8,"0.00517 µM [rising, full curve, poor fit]",–
CCC(=O)Nc1nnc(-c2ccc(OC)cc2)o1,55.1,"9.2 µM [rising, partial curve]","9.2 µM [rising, partial curve]"
CCOC(=O)C1=C(O)/C(=C/c2ccc(OCC(=O)O)c(OCC)c2)SC1=Nc1ccc(OC)cc1,-16.7,–,"2.59 µM [falling, full curve, poor fit]"
COc1ccccc1N1CCN(C(=O)/C=C/c2ccc3c(c2)OCO3)CC1,29.7,–,–
CCOc1ccc(NS(=O)(=O)c2ccc(C(=O)NCC(c3ccco3)N3CCCC3)cc2)cc1 (configuration not stated),-30.7,"29.1 µM [falling, single point]",–
Cc1ccc(/C(N)=N/OC(=O)c2cccc(Cn3cc(C(F)(F)F)ccc3=O)c2)cc1,-26.2,–,"29.1 µM [falling, single point]"
Cc1cc(N/N=C/c2ccc(Cl)cc2Cl)nc(NCc2ccccc2)n1,-82.9,–,"11.6 µM [falling, partial curve]"
Cc1ccc(OCCC(=O)N(CCC(C)C)c2c(N)n(Cc3ccccc3)c(=O)[nH]c2=O)cc1,13.7,–,–
C/C(=N\NC(=O)c1cc2ccccc2cc1O)c1ccc2c(c1)OCO2,-30.5,"1.03 µM [falling, full curve, poor fit]","8.2 µM [falling, single point]"
COc1ccc(-c2nn(-c3ccccc3)cc2C2CC(c3cccs3)=NN2C(=O)CCC(=O)O)cc1 (configuration not stated),-1.36,–,–
CCOC(=O)CC(C#N)c1c[nH]c2ccccc12 (configuration not stated),–,–,"0.651 µM [falling, partial curve, poor fit]"
O=C(CN1CCN(S(=O)(=O)N2CCCCCC2)CC1)Nc1cc(Cl)ccc1Cl,6.41,–,–
O=C(c1cccc(Oc2ccccc2)c1)N1CCOCC1,29.8,–,"4.61 µM [rising, partial curve]"
COCCNC(=O)c1ccccc1NC(=O)c1ccccc1N(C)S(=O)(=O)c1ccccc1,10.8,–,"29.1 µM [rising, single point]"
